Source: patent US20110318474A1, “FOOD PRODUCTS ENRICHED WITH METHYLXANTHINES” (priority 2008, published 2011)

What was measured:
tasters (bitterness) = conditions: cited from earlier work; for taste of theobromine spiked with compound: theobromine 3 mmol per litre, compound 2.2, 22.2 or 222 micromol per litre
[1] = tested on: trained panellists (bitterness perception); conditions: 120 mg caffeine per 25 g milk chocolate, 25 trained panellists, 5% level of significance

Compound | taste of theobromine spiked with compound (tasters (bitterness)) | further results
OC[C@H]1O[C@@H](c2c(O)cc(O)c3c2O[C@H](c2ccc(O)c(O)c2)[C@@H](O)C3)[C@H](O)[C@@H](O)[C@@H]1O [8-C-glucosylated catechin] |  | bitterness intensity of theobromine (tasters (bitterness); theobromine 600 ppm combined with about 10 ppm compound): not decreased
Oc1cc(O)c2c(c1)O[C@H](c1ccc(O)c(O)c1)[C@@H](O)C2 [(+)-catechin] | did not lead to decrease of bitterness | 
Oc1cc(O)c2c(c1)O[C@@H](c1ccc(O)c(O)c1)[C@@H](O)C2 [(+)—epicatechin] | did not lead to decrease of bitterness | 
OC[C@H]1O[C@@H](c2c(O)cc(O)c3c2O[C@@H](c2ccc(O)c(O)c2)[C@H](O)C3)[C@H](O)[C@@H](O)[C@@H]1O [(−)-catechin-8-C-beta-D-glucopyranoside] | less bitter, softer and more pleasant taste | 
Cn1c(=O)c2c(ncn2C)n(C)c1=O [caffeine, 1,3,7-trimethylxanthine] |  | bitterness perception versus plain milk chocolate ([1]; study with cyclodextrin complex): more bitter than the plain milk chocolate; bitterness perception versus plain milk chocolate ([1]; study with tannic acid complex): more bitter than the other two samples

Like-named read-outs stand apart in the source and are kept apart here.
